{"sequences": {"note": "The chains behind the UniProt entries cited, without tags or fusion partners.", "UniProt P12813": "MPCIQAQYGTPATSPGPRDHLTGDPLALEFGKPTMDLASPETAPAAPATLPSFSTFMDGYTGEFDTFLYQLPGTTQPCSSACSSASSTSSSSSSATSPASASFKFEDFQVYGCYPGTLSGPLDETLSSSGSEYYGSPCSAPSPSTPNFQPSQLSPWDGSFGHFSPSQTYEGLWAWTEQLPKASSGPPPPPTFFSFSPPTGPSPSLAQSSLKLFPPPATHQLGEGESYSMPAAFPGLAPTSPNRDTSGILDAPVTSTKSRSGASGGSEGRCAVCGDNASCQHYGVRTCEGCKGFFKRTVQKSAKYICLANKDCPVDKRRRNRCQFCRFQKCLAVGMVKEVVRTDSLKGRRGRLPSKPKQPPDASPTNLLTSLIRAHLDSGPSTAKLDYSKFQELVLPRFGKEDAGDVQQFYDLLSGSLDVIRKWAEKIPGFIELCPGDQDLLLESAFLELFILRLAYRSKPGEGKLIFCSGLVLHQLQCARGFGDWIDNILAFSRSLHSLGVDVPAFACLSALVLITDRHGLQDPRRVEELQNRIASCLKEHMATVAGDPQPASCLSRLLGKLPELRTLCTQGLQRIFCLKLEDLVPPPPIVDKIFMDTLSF", "UniProt O09106": "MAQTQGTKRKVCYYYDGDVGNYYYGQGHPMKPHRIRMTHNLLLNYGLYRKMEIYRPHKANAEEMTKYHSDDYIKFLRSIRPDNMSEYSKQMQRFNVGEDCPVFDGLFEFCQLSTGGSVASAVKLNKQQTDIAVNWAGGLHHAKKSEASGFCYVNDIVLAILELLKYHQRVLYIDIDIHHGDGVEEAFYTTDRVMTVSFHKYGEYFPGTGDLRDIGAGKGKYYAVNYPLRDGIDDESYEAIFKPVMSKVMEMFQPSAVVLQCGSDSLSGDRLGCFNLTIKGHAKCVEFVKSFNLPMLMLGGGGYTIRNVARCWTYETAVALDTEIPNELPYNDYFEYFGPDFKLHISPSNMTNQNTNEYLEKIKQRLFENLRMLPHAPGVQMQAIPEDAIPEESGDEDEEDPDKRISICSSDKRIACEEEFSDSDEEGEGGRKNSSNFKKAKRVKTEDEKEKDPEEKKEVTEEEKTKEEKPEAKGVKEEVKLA"}, "source": "paper PMC9849262", "target": "Nur77 (NR4A1) (mouse (endogenous in Raw264.7)) (UniProt P12813)", "experiment": "co-IP; Raw264.7 cells (control, H/R, Ad.Null+H/R, Ad.HDAC1+H/R) sonicated in BC300 buffer (20 mM Tris-HCl, 300 mM NaCl, 0.2 mM EDTA, 0.2% Tween-20, 10% glycerol); lysates incubated with anti-Nur77 or acetylated-lysine antibody 24 h at 4 °C, then A/G agarose beads; rabbit IgG as negative control", "note": "These are yes or no findings as the source states them, for the method shown. In cells and extracts the contact can be indirect. Some results given as binding are weak or reduced against the parent protein; the word gives no strength.", "data": [{"substance": "Histone deacetylase 1 (from UniProt O09106 1-482) (enzyme)", "values": [{"measurement": "binding", "result": "binds"}]}]}
